Experimental data: PubChem BioAssay AID1224830 (NIAID, 2016)
In all, the deposit lists about 18,000 reagents; shown is a part drawn at random. Of all reagents, about 2,900 (16%) got an active call. 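Calls are made per well; low scores hint the gene aids the LPS response, high scores that it dampens it.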 Repeated entries: four replicate wells of each siRNA pool. Reagent sequences are not shown.

- Aim: 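Host factors that control LPS-induced TNF expression in human macrophages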 (primary screen)
- Cell system: human THP-1 monocytic leukaemia cells, TNF dual-luciferase reporter clone, PMA-differentiated to macrophage-like cells
- Reagents: siRNA pool against human genes, 50 nM
- Timing: LPS for 4 h, given about 3 days after siRNA transfection
- Challenge: bacterial LPS (TLR4 ligand), 10 ng/ml
- Measurement: 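Ratio of firefly to renilla light, scaled to the plate median and expressed as a robust z-score per replicate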
- Direction: TNF reporter robust z-score: higher = stronger TNF reporter response to LPS
- Active means: 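a well is active when its z-score exceeds 2.8 or falls below -1.5; control wells carry no call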

| gene symbol | TNF reporter robust z-score | activity call |
| --- | --- | --- |
| AP5S1 (adaptor related protein complex 5 subunit sigma 1) | -1 | inactive |
| AP5S1 (adaptor related protein complex 5 subunit sigma 1) | -0.66 | inactive |
| AP5S1 (adaptor related protein complex 5 subunit sigma 1) | -0.35 | inactive |
| AP5S1 (adaptor related protein complex 5 subunit sigma 1) | -0.24 | inactive |
| MECP2 (methyl-CpG binding protein 2) | 2.25 | inactive |
| MECP2 (methyl-CpG binding protein 2) | 2.34 | inactive |
| MECP2 (methyl-CpG binding protein 2) | 1.33 | inactive |
| MECP2 (methyl-CpG binding protein 2) | 1.65 | inactive |
| LYAR (Ly1 antibody reactive) | -1.2 | inactive |
| LYAR (Ly1 antibody reactive) | -1.17 | inactive |
| LYAR (Ly1 antibody reactive) | -1.15 | inactive |
| LYAR (Ly1 antibody reactive) | -1.05 | inactive |
| ATAD5 (ATPase family AAA domain containing 5) | -0.46 | inactive |
| ATAD5 (ATPase family AAA domain containing 5) | 0.08 | inactive |
| ATAD5 (ATPase family AAA domain containing 5) | 0.53 | inactive |
| ATAD5 (ATPase family AAA domain containing 5) | 0.75 | inactive |
| ANP32B (acidic nuclear phosphoprotein 32 family member B) | -0.44 | inactive |
| ANP32B (acidic nuclear phosphoprotein 32 family member B) | 0.07 | inactive |
| ANP32B (acidic nuclear phosphoprotein 32 family member B) | -0.64 | inactive |
| ANP32B (acidic nuclear phosphoprotein 32 family member B) | 0.04 | inactive |
| RSL1D1 (ribosomal L1 domain containing 1) | -0.06 | inactive |
| RSL1D1 (ribosomal L1 domain containing 1) | 0.75 | inactive |
| RSL1D1 (ribosomal L1 domain containing 1) | -0.22 | inactive |
| RSL1D1 (ribosomal L1 domain containing 1) | -0.17 | inactive |
| INSL4 (insulin like 4) | -0.66 | inactive |
| INSL4 (insulin like 4) | 0.04 | inactive |
| INSL4 (insulin like 4) | 0.29 | inactive |
| INSL4 (insulin like 4) | 0.11 | inactive |
| THEMIS2 (thymocyte selection associated family member 2) | 1.2 | inactive |
| THEMIS2 (thymocyte selection associated family member 2) | 1.34 | inactive |
| THEMIS2 (thymocyte selection associated family member 2) | -0.15 | inactive |
| THEMIS2 (thymocyte selection associated family member 2) | 1.12 | inactive |
| ROBO2 (roundabout guidance receptor 2) | -0.64 | inactive |
| ROBO2 (roundabout guidance receptor 2) | -0.92 | inactive |
| ROBO2 (roundabout guidance receptor 2) | -1.38 | inactive |
| ROBO2 (roundabout guidance receptor 2) | 0 | inactive |
| RPL26 (ribosomal protein L26) | 1.1 | inactive |
| RPL26 (ribosomal protein L26) | 1.38 | inactive |
| RPL26 (ribosomal protein L26) | 1.98 | inactive |
| RPL26 (ribosomal protein L26) | 1.3 | inactive |
| ZNF182 (zinc finger protein 182) | -0.85 | inactive |
| ZNF182 (zinc finger protein 182) | -0.98 | inactive |
| ZNF182 (zinc finger protein 182) | -0.52 | inactive |
| WDR89 (WD repeat domain 89) | -1.79 | active |
| WDR89 (WD repeat domain 89) | -0.5 | inactive |
| WDR89 (WD repeat domain 89) | -0.46 | inactive |
| WDR89 (WD repeat domain 89) | -1.08 | inactive |
| CRP (C-reactive protein) | 0.42 | inactive |
| CRP (C-reactive protein) | 0.27 | inactive |
| CRP (C-reactive protein) | 0.82 | inactive |
| CRP (C-reactive protein) | 0.95 | inactive |

Sorted by “TNF reporter robust z-score” (highest first): 17 of the entries above.
| gene symbol | TNF reporter robust z-score | activity call |
| --- | --- | --- |
| RPL26 (ribosomal protein L26) | 1.98 | inactive |
| RPL26 (ribosomal protein L26) | 1.38 | inactive |
| RPL26 (ribosomal protein L26) | 1.3 | inactive |
| THEMIS2 (thymocyte selection associated family member 2) | 1.12 | inactive |
| RPL26 (ribosomal protein L26) | 1.1 | inactive |
| ROBO2 (roundabout guidance receptor 2) | 0 | inactive |
| THEMIS2 (thymocyte selection associated family member 2) | -0.15 | inactive |
| WDR89 (WD repeat domain 89) | -0.46 | inactive |
| WDR89 (WD repeat domain 89) | -0.5 | inactive |
| ZNF182 (zinc finger protein 182) | -0.52 | inactive |
| ROBO2 (roundabout guidance receptor 2) | -0.64 | inactive |
| ZNF182 (zinc finger protein 182) | -0.85 | inactive |
| ROBO2 (roundabout guidance receptor 2) | -0.92 | inactive |
| ZNF182 (zinc finger protein 182) | -0.98 | inactive |
| WDR89 (WD repeat domain 89) | -1.08 | inactive |
| ROBO2 (roundabout guidance receptor 2) | -1.38 | inactive |
| WDR89 (WD repeat domain 89) | -1.79 | active |

More records:
| gene symbol | TNF reporter robust z-score | activity call |
| --- | --- | --- |
| PTX4 (pentraxin 4) | 0.66 | inactive |
| PTX4 (pentraxin 4) | 1.91 | inactive |
| PTX4 (pentraxin 4) | -1.14 | inactive |
| PTX4 (pentraxin 4) | -0.84 | inactive |
| PPP1R11 (protein phosphatase 1 regulatory inhibitor subunit 11) | -0.14 | inactive |
| PPP1R11 (protein phosphatase 1 regulatory inhibitor subunit 11) | 0 | inactive |
| PPP1R11 (protein phosphatase 1 regulatory inhibitor subunit 11) | -1.61 | active |
| PPP1R11 (protein phosphatase 1 regulatory inhibitor subunit 11) | -1.09 | inactive |
| RHNO1 (RAD9-HUS1-RAD1 interacting nuclear orphan 1) | 2.68 | inactive |
| RHNO1 (RAD9-HUS1-RAD1 interacting nuclear orphan 1) | 0.93 | inactive |
| RHNO1 (RAD9-HUS1-RAD1 interacting nuclear orphan 1) | -0.52 | inactive |
| RHNO1 (RAD9-HUS1-RAD1 interacting nuclear orphan 1) | 0.65 | inactive |
| ENAH (ENAH actin regulator) | – | inactive |
| ENAH (ENAH actin regulator) | -0.67 | inactive |
| ENAH (ENAH actin regulator) | -0.61 | inactive |
| ENAH (ENAH actin regulator) | -0.47 | inactive |
| ENAH (ENAH actin regulator) | -0.59 | inactive |
| USPL1 (ubiquitin specific peptidase like 1) | -1.77 | active |
| USPL1 (ubiquitin specific peptidase like 1) | -1.47 | inactive |
| USPL1 (ubiquitin specific peptidase like 1) | -1.56 | active |
| USPL1 (ubiquitin specific peptidase like 1) | -1.57 | active |
| KCNJ15 (potassium inwardly rectifying channel subfamily J member 15) | -0.07 | inactive |
| KCNJ15 (potassium inwardly rectifying channel subfamily J member 15) | 0.4 | inactive |
| KCNJ15 (potassium inwardly rectifying channel subfamily J member 15) | -1.33 | inactive |
| KCNJ15 (potassium inwardly rectifying channel subfamily J member 15) | -0.17 | inactive |
| LILRA3 (leukocyte immunoglobulin like receptor A3) | -0.15 | inactive |
| LILRA3 (leukocyte immunoglobulin like receptor A3) | 1.07 | inactive |
| LILRA3 (leukocyte immunoglobulin like receptor A3) | -1.1 | inactive |
| LILRA3 (leukocyte immunoglobulin like receptor A3) | -0.36 | inactive |
| OR4F16 (olfactory receptor family 4 subfamily F member 16) | 1.13 | inactive |
| OR4F16 (olfactory receptor family 4 subfamily F member 16) | -0.72 | inactive |
| OR4F16 (olfactory receptor family 4 subfamily F member 16) | -0.04 | inactive |
| OR4F16 (olfactory receptor family 4 subfamily F member 16) | 1.77 | inactive |
| KRT83 (keratin 83) | -0.43 | inactive |
| KRT83 (keratin 83) | 0.07 | inactive |
| KRT83 (keratin 83) | 0.6 | inactive |
| KRT83 (keratin 83) | -0.41 | inactive |
| RAF1 (Raf-1 proto-oncogene, serine/threonine kinase) | -0.46 | inactive |
| RAF1 (Raf-1 proto-oncogene, serine/threonine kinase) | -0.55 | inactive |
| RAF1 (Raf-1 proto-oncogene, serine/threonine kinase) | -0.45 | inactive |
| RAF1 (Raf-1 proto-oncogene, serine/threonine kinase) | -0.49 | inactive |
| ABHD1 (abhydrolase domain containing 1) | -0.91 | inactive |
| ABHD1 (abhydrolase domain containing 1) | -1.27 | inactive |
| ABHD1 (abhydrolase domain containing 1) | -1.67 | active |
| ABHD1 (abhydrolase domain containing 1) | -0.22 | inactive |
| RHBDF1 (rhomboid 5 homolog 1) | 0.89 | inactive |
| RHBDF1 (rhomboid 5 homolog 1) | 0.93 | inactive |
| RHBDF1 (rhomboid 5 homolog 1) | 0.53 | inactive |
| RHBDF1 (rhomboid 5 homolog 1) | 0.37 | inactive |
| TMEM147 (transmembrane protein 147) | -0.99 | inactive |
| TMEM147 (transmembrane protein 147) | -0.02 | inactive |
| TMEM147 (transmembrane protein 147) | -0.94 | inactive |
| TMEM147 (transmembrane protein 147) | 0.06 | inactive |
| MORC4 (MORC family CW-type zinc finger 4) | 0.26 | inactive |
| MORC4 (MORC family CW-type zinc finger 4) | 0.24 | inactive |
| MORC4 (MORC family CW-type zinc finger 4) | 1.28 | inactive |
| MORC4 (MORC family CW-type zinc finger 4) | 3.39 | active |
| PRICKLE3 (prickle planar cell polarity protein 3) | -0.34 | inactive |
| PRICKLE3 (prickle planar cell polarity protein 3) | -0.55 | inactive |
| PRICKLE3 (prickle planar cell polarity protein 3) | -1 | inactive |
| PRICKLE3 (prickle planar cell polarity protein 3) | 0.72 | inactive |
